Measurements reported in US20110269680A1 (PANACEA BIOTEC LIMITED, priority 2008, published 2011).
At least one structure is not confirmed: it was looked up by name or label, or the drawing left a doubt. Numbered stars: 1 amine (or outer) side, 2 acyl side, 3 side chain; on linkers, the order of the positions; unused ones are H or OH. Square brackets hold non-standard residues; d marks the D form. Peptide text beside a SMILES is read from it. X1 = CO[C@H]1O[C@H](C(=O)[*:2])[C@@H](O)[C@H](O)[C@H]1N[*:1]; 2Furoyl(5-aminomethyl) = O=C(c1ccc(CN[*:1])o1)[*:2]; Aib = CC(C)(N)C(=O)O

Sequences of proteins named here, by UniProt entry; tags and fusion partners are left off. Residues count along the entry.
UniProt P43220, 24-463, species assumed: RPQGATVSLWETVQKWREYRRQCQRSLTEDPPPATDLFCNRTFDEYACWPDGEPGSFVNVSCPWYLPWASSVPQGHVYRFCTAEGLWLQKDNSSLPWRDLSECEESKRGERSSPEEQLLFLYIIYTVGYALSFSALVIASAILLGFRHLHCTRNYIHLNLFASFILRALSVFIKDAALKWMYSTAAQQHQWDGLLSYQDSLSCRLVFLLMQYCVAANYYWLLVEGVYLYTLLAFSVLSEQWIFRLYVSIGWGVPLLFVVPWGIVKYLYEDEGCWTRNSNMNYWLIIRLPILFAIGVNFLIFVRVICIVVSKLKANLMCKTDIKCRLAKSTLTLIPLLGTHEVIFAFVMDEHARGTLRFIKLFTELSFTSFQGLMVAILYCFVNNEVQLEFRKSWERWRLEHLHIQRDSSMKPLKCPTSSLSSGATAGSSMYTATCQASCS

Biological target: T1, GLP-1R (Homo sapiens, UniProt P43220)
T1 construct: expressed in transfected cells; host or cells: CHO/GLP-1R cells
Assay: In vitro receptor functional assay (cAMP) in CHO/GLP-1R cells
Format: cell-based
Conditions: intracellular cAMP, 30 min with 1 mM IBMX
Description: cAMP is a ubiquitous cellular second messenger that is critical component of a signal transduction pathway linking membrane receptors and their ligands to the activation of internal cellular enzymatic activity and gene expression. cAMP is synthesized from ATP by membrane bound adenylate cyclase in a very regulated manner. In its simpler form, binding of a ligand, such as hormone or drug, to its specific G protein coupled receptor can either stimulate or inhibit adenylate cyclase depending on the GPCR being activated. […] Therefore the relative concentration of cAMP serves as a means to monitor the activity of GPCRs at the cell surface.
CHO/GLP-1R Cell Culture—CHO/GLP-1R Cells were maintained in Ham's F-12 medium containing 10% Fetal bovine serum and 1% penicillin-streptomycin antibiotic solution at 37° C. in a 5% CO2 incubator.
Cells were washed twice with PBS (pH-7.2) and incubated with 100 μl Ham's F-12 serum free medium supplemented with 0.1% BSA for 2 hr at 37° C. in 5% CO2 incubator. Cells were then incubated in 100 μl Ham's F-12 serum free medium supplemented with 0.1% BSA with 1 mM IBMX in the presence as well as absence of the peptides as per present invention in different concentration (10 nM, 1 nM, 100 pM & 10 pM). The reaction was stopped 30 min later by washing the intact cells three times with ice cold PBS (pH-7.2). […]

CC[C@H](C)[C@H](NC(=O)[C@H](Cc1ccccc1)NC(=O)[C@H](CCC(=O)O)NC(=O)[C@H](CCCCN)NC(=O)[C@H](C)NC(=O)[C@H](C)NC(=O)[C@H](CCC(N)=O)NC(=O)CNC(=O)[C@H](CCC(=O)O)NC(=O)[C@H](CC(C)C)NC(=O)[C@H](Cc1ccc(O)cc1)NC(=O)[C@H](CO)NC(=O)[C@H](CO)NC(=O)C(C)(C)NC(=O)[C@H](CC(=O)O)NC(=O)[C@H](CO)NC(=O)[C@@H](NC(=O)[C@H](Cc1ccccc1)NC(=O)[C@@H](NC(=O)CNC(=O)[C@H](CCC(=O)O)NC(=O)c1ccc(CNC(=O)[C@@H](N)Cc2c[nH]cn2)o1)[C@@H](C)O)[C@@H](C)O)C(=O)NC(C)(C)C(=O)N[C@@H](Cc1c[nH]c2ccccc12)C(=O)N[C@@H](CC(C)C)C(=O)N[C@H](C(=O)N[C@@H](CCCCN)C(=O)NCC(=O)N[C@@H](CCCNC(=N)N)C(N)=O)C(C)C [Seq ID No. 04] (H-H[2Furoyl(5-aminomethyl)]EGTFTSD[Aib]SSYLEGQAAKEFI[Aib]WLVKGR-NH2; N-terminus assumed)
EC50: 0.072 nM

CC[C@H](C)[C@H](NC(=O)[C@H](Cc1ccccc1)NC(=O)[C@H](CC(C)C)NC(=O)[C@H](CCCCN)NC(=O)[C@H](C)NC(=O)[C@H](C)NC(=O)[C@H](CCC(N)=O)NC(=O)CNC(=O)[C@H](CCC(=O)O)NC(=O)[C@H](CCC(N)=O)NC(=O)[C@H](Cc1ccc(O)cc1)NC(=O)[C@H](CO)NC(=O)[C@H](CC(C)C)NC(=O)[C@@H](NC(=O)[C@H](CC(=O)O)NC(=O)[C@H](CO)NC(=O)[C@@H](NC(=O)[C@H](Cc1ccccc1)NC(=O)[C@@H](NC(=O)CNC(=O)[C@H]1O[C@H](OC)[C@H](NC(=O)[C@@H](N)Cc2c[nH]cn2)[C@@H](O)[C@@H]1O)[C@@H](C)O)[C@@H](C)O)C(C)C)C(=O)N[C@@H](CCC(=O)O)C(=O)N[C@@H](Cc1c[nH]c2ccccc12)C(=O)N[C@@H](CC(C)C)C(=O)N[C@H](C(=O)N[C@@H](CCCCN)C(=O)NCC(=O)N[C@@H](CCCNC(=N)N)C(N)=O)C(C)C [Seq ID No. 12] (H-H[X1]GTFTSDVLSYQEGQAAKLFIEWLVKGR-NH2; N-terminus assumed)
EC50: 2.24 nM
